Assay [1] deals with Glucose-regulated protein 75 (GRP75) (human (endogenous in SH-SY5Y)) (UniProt P38646). Nature of the assay: co-IP; lysates of 30 human primary NB tumors (13 GNB, 9 DNB, 8 UNB); immunoprecipitation with anti-GRP75, immunoblot with anti-RARα or anti-RXRα.
The target is the same in assay [2]. In words: co-IP; cytosolic pools of SH-SY5Y cells treated with RA (10 µM) or 0.1% DMSO for various intervals; immunoprecipitation with anti-GRP75 on protein A agarose, Western blot with anti-RARα or anti-RXRα. A general note: In western blotting, separated proteins are transferred to a membrane and probed.
The target is the same in assay [3]. In words: co-IP; clarified lysates of stNB-V1 xenograft tumors from nude mice treated with RA (1 mg/kg b.w.) or vehicle daily for 14 d; immunoprecipitation with anti-GRP75, immunoblot with anti-RARα or anti-RXRα.
Assay [4] has the same target. In words: co-IP; nuclear lysates of SK-N-SH, SK-N-MC, stNB-V1, SK-N-BE, SK-N-DZ and IMR-32 cells treated with 10 µM RA or 0.1% DMSO for 1 d; immunoprecipitation with mouse anti-GRP75, immunoblot with anti-RARα or anti-RXRα.
Assay [5] has the same target. Nature of the assay: co-IP; nuclear extracts (Nuclei EZ Prep Kit) of SH-SY5Y cells treated with RA (10 µM) or 0.1% DMSO for various intervals; immunoprecipitation with anti-GRP75 on protein A agarose, Western blot with anti-RARα or anti-RXRα.

Sequences of proteins named here, by UniProt entry; tags and fusion partners are left off. A change or cut given only in a name is not applied to a line headed by its entry. Residues count along the entry.
UniProt P38646, residues 47-679: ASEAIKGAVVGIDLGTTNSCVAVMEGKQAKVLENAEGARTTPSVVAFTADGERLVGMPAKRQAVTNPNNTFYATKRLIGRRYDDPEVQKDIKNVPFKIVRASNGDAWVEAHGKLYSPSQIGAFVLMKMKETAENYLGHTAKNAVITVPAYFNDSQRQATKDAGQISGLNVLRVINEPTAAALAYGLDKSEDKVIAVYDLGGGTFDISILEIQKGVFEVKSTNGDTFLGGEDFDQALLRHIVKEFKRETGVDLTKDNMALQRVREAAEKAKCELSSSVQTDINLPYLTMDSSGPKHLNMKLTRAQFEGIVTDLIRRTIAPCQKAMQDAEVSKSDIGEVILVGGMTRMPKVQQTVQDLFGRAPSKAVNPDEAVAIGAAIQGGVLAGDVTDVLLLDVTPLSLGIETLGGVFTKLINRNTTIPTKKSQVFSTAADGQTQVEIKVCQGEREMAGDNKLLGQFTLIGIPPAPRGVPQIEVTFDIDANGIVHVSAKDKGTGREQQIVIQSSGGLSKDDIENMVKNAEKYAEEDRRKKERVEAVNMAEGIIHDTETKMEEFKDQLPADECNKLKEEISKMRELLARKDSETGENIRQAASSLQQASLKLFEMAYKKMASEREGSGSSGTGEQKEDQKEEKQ
UniProt P10276: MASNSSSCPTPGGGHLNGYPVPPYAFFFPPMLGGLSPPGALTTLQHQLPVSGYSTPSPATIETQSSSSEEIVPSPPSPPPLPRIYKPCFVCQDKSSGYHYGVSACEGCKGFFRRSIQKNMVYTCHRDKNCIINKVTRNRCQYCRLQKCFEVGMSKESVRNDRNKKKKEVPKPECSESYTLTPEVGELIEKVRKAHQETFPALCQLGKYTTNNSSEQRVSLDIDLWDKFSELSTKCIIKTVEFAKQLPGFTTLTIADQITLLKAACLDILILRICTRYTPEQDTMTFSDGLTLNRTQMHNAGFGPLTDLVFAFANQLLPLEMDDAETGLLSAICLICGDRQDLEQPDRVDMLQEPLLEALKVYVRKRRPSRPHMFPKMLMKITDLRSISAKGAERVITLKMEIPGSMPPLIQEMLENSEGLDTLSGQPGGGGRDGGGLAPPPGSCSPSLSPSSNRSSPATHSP

These results are taken from paper PMC3194821.

Results are given in words; binding and its absence hold for the method and conditions named. Binding seen in cells or lysates may run through a third protein. Some binding calls cover weakened binding; strength is not graded here.

For the substance “RARα/RXRα heterodimer (retinoic acid receptor alpha / retinoid X receptor alpha) (from UniProt P10276 1-462; P19793 1-462) (complex)”, the binding result in assay [1] is given as “binds”; in assay [2] it was “binds weakly”; in assay [3], “binds”; in assay [4], “binds”; in assay [5], “binds”.
